Source: patent US10350216B2, “Methods of treating, preventing and diagnosing leukemia and other blood diseases and disorders” (The Trustees of Columbia University in the City of New York, priority 2013, dated 2019)
For at least one compound, name, drawing or mass did not settle the structure.

Tested on: wild type mice
Test: DBZ treatment of wild type mice: peripheral blood counts and bone marrow cellularity
Assay type: in vivo, mouse
Details: DBZ 2 μmol/kg body weight daily for 10 days
Protocol: […] DBZ is cell-permeable, selective, nontransition sate and noncompetitive inhibitor of the γ-secretase complex. DBZ was synthesized to greater than 99.9% purity as assessed by LC/MS (Syncom) and suspended in a 0.5% Methocel E4M (wt/vol, Colorcon) and 0.1% (vol/vol) Tween-80 (Sigma) solution (van Es et al., 2005). Immediately before intraperitoneal injection, DBZ was sonicated for 2 minutes to achieve a homogenous suspension.
For hematological measurements, blood was collected by cardiac puncture. Peripheral blood cell counts were performed on a FORCYTE Hematology Analyzer (Oxford Science Inc.). For morphological assessment, peripheral blood smears were stained with Wright-Giemsa stain (Sigma-Aldrich) for 10 minutes followed by rinsing in dH2O for 3 minutes. Images were taken using a 60× objective on a Leica microscope outfitted with camera. […]
Hematological measurements, peripheral blood morphology, flow cytometry, PCR, and histological analysis were performed as described in Example 1.

For `C[C@H](NC(=O)Cc1cc(F)cc(F)c1)C(=O)NC1C(=O)N(C)c2ccccc2-c2ccccc21` (stereo partly drawn) [DBZ, (2S)-2-[2-(3,5-difluorophenyl)-acetylamino]-N-(5-methyl-6-oxo-6,7-dihydro-5H-dibenzo[b,-d]azepin-7-yl)-propionamide], the RBC was 9.49 ± .0.3 ×10^6/μl.
